Results deposited as PubChem BioAssay AID504764 (Drosophila RNAi Screening Center, 2011)
The screen tested about 22,000 reagents; this is an unselected part of those that have a named target and a result. Of all reagents, 403 (1.9%) are marked active. 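Unnormalised raw counts per well; ratio z-scores behind the hit calls and whether each hit raises or lowers signal are not deposited.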 The numbers tell different reagents against one gene apart. Not stated in the record: the amount of reagent.

- Test: 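Genes whose knock-down alters Notch-dependent transcription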 (primary screen)
- Cell system: Drosophila Kc167 cells
- Reagents: long dsRNA against Drosophila genes
- Timing: about 5 days (4 days dsRNA, then 24 h after transfection)
- Conditions: transfection of constitutively active membrane-tethered Notch lacking the extracellular domain, read 24 h later
- Measurement: 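Firefly luciferase from an E(spl)m3 reporter with active Notch, plus control-promoter and uninduced reporter wells for normalisation; unnormalised counts, duplicate wells a and b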
- Reading the numbers: induced reporter light, run 1, well a and induced reporter light, run 1, well b: higher = more light from the Notch target reporter with active Notch; control promoter light, run 1, well a and control promoter light, run 1, well b: higher = more light from the viral control promoter (cell number, transfection, viability); uninduced reporter light, run 1, well a: higher = more light from the Notch target reporter without active Notch
- Rule for the call: 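Wells with low control signal or poorly matching duplicates excluded; duplicates averaged; per source plate, z beyond ±2 for induced/control log2 ratio or beyond ±1.8 for induced/uninduced marks a hit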
- Calls: active = modifier hit (raised or lowered Notch signal); inactive = not a hit

CG12516
- induced reporter light, run 1, well a: 1.42e5
- induced reporter light, run 1, well b: 1.17e5
- control promoter light, run 1, well a: 1.78e5
- control promoter light, run 1, well b: 1.81e5
- uninduced reporter light, run 1, well a: 10000
- activity call: inactive

CG12698
- induced reporter light, run 1, well a: 1.15e5
- induced reporter light, run 1, well b: 82240
- control promoter light, run 1, well a: 81020
- control promoter light, run 1, well b: 73380
- uninduced reporter light, run 1, well a: 10180
- activity call: inactive

CG32695
- induced reporter light, run 1, well a: 1.63e5
- induced reporter light, run 1, well b: 1.55e5
- control promoter light, run 1, well a: 2.77e5
- control promoter light, run 1, well b: 3.07e5
- uninduced reporter light, run 1, well a: 10845
- activity call: inactive

Corin
- induced reporter light, run 1, well a: 2.17e5
- induced reporter light, run 1, well b: 1.64e5
- control promoter light, run 1, well a: 2.32e5
- control promoter light, run 1, well b: 2.13e5
- uninduced reporter light, run 1, well a: 16090
- activity call: inactive

Ucp4B
- induced reporter light, run 1, well a: 1.39e5
- induced reporter light, run 1, well b: 1.15e5
- control promoter light, run 1, well a: 1.78e5
- control promoter light, run 1, well b: 1.67e5
- uninduced reporter light, run 1, well a: 10540
- activity call: inactive

CG17612
- induced reporter light, run 1, well a: 1.57e5
- induced reporter light, run 1, well b: 1.63e5
- control promoter light, run 1, well a: 1.84e5
- control promoter light, run 1, well b: 2.21e5
- uninduced reporter light, run 1, well a: 18780
- activity call: inactive

Trs31
- induced reporter light, run 1, well a: 1.31e5
- induced reporter light, run 1, well b: 1.40e5
- control promoter light, run 1, well a: 1.31e5
- control promoter light, run 1, well b: 1.28e5
- uninduced reporter light, run 1, well a: 12532
- activity call: inactive

CG12643
- induced reporter light, run 1, well a: 1.23e5
- induced reporter light, run 1, well b: 1.22e5
- control promoter light, run 1, well a: 1.74e5
- control promoter light, run 1, well b: 1.90e5
- uninduced reporter light, run 1, well a: 7545
- activity call: inactive

Naa40
- induced reporter light, run 1, well a: 1.40e5
- induced reporter light, run 1, well b: 1.52e5
- control promoter light, run 1, well a: 1.70e5
- control promoter light, run 1, well b: 1.75e5
- uninduced reporter light, run 1, well a: 12980
- activity call: inactive

E(Pc) #1
- induced reporter light, run 1, well a: 1.35e5
- induced reporter light, run 1, well b: 1.16e5
- control promoter light, run 1, well a: 2.52e5
- control promoter light, run 1, well b: 3.13e5
- uninduced reporter light, run 1, well a: 23195
- activity call: inactive

E(Pc) #2
- induced reporter light, run 1, well a: 63080
- induced reporter light, run 1, well b: 47030
- control promoter light, run 1, well a: 97235
- control promoter light, run 1, well b: 93870
- uninduced reporter light, run 1, well a: 6210
- activity call: active

CG17108
- induced reporter light, run 1, well a: 81535
- induced reporter light, run 1, well b: 1.21e5
- control promoter light, run 1, well a: 65170
- control promoter light, run 1, well b: 77460
- uninduced reporter light, run 1, well a: 14390
- activity call: inactive

Pex11ab
- induced reporter light, run 1, well a: 31155
- induced reporter light, run 1, well b: 39270
- control promoter light, run 1, well a: 37310
- control promoter light, run 1, well b: 52850
- uninduced reporter light, run 1, well a: 4700
- activity call: inactive

CG10514
- induced reporter light, run 1, well a: 1.38e5
- induced reporter light, run 1, well b: 1.30e5
- control promoter light, run 1, well a: 1.92e5
- control promoter light, run 1, well b: 1.88e5
- uninduced reporter light, run 1, well a: 11830
- activity call: inactive

CG14926
- induced reporter light, run 1, well a: 2.13e5
- induced reporter light, run 1, well b: 2.15e5
- control promoter light, run 1, well a: 1.24e5
- control promoter light, run 1, well b: 1.48e5
- uninduced reporter light, run 1, well a: 21705
- activity call: inactive

CG2225 #1
- induced reporter light, run 1, well a: 1.95e5
- induced reporter light, run 1, well b: 2.84e5
- control promoter light, run 1, well a: 1.96e5
- control promoter light, run 1, well b: 1.79e5
- uninduced reporter light, run 1, well a: 15440
- activity call: inactive

CG2225 #2
- induced reporter light, run 1, well a: 48015
- induced reporter light, run 1, well b: 39070
- control promoter light, run 1, well a: 45970
- control promoter light, run 1, well b: 46115
- uninduced reporter light, run 1, well a: 2765
- activity call: inactive

CG9676
- induced reporter light, run 1, well a: 72475
- induced reporter light, run 1, well b: 67210
- control promoter light, run 1, well a: 85700
- control promoter light, run 1, well b: 73835
- uninduced reporter light, run 1, well a: 9160
- activity call: inactive
